In PubChem BioAssay AID328 (DTP/NCI, 2004):
The list shows only some results of the screen, not a fair sample: it gathers some chemical classes. Other doses and runs of a compound may be missing. T/C gives the treated animals as a percentage of the vehicle group. Some entries give survivors of the animals treated and no T/C: the source files T/C as zero there, which appears to mark a toxic dose or a test without result, not a measured value. Some survivor counts are full or nearly so, which does not show that the dose was tolerated: the source hardly ever lists a survival T/C far under the control, and the zero likely stands for such cases as well. Counts of survivors are from the toxicity check (mostly the fifth day) where no day follows; animals may have died later. Schedules are NCI's codes, read here as Q, the interval in days (D) or hours (H), X, the number of doses. Where survival is the endpoint, the PubChem record calls one and a half times the control and up active, and a quarter to a half above the control has no call in these data; cut-offs in other NCI protocols can differ. Additions like (4×) count equal records among those shown. Some T/C values are followed by the survivors on the day toxicity was checked, most often the fifth; where neither a count nor a note follows, no animal had died by that day. Some entries hold several experiments; the values are given in rising order. Some T/C values are marked as having no survivor count here; that says nothing about deaths at the dose.

System: BDF1 mice, P388 leukemia ip, median survival T/C
Assay: NCI In Vivo Anticancer Drug Screen. Data for tumor model P388 Leukemia (intraperitoneal) in B6D2F1 (BDF1) mice
Details: T/C endpoint: median survival time, higher T/C = longer survival
Outline: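 Mice carrying the transplantable tumour receive compound or vehicle. Survival is followed in each arm, and the treated measure is divided by the vehicle measure.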

[1] = dose: 75.0 mg/kg/injection, schedule: Q04DX003 (ip), vehicle: Klucel (hydroxypropylcellulose) (HPC)
[2] = dose: 4.13 mg/kg/injection, schedule: Q01DX009 (ip), vehicle: saline
[3] = dose: 8.25 mg/kg/injection, schedule: Q01DX009 (ip), vehicle: saline
[4] = dose: 16.5 mg/kg/injection, schedule: Q01DX009 (ip), vehicle: saline
[5] = dose: 100.0 mg/kg/injection, schedule: Q04DX003 (ip), vehicle: saline
[6] = dose: 200.0 mg/kg/injection, schedule: Q04DX003 (ip), vehicle: saline
[7] = dose: 100.0 mg/kg/injection, schedule: Q04DX003 (ip), vehicle: saline with Tween-80

## Cc1cc(N(CCCl)CCCl)c2ccccc2c1
dose: 3.1 mg/kg/injection, schedule: Q04DX003 (ip), vehicle: Klucel (hydroxypropylcellulose) (HPC)
  T/C: 100 % of control
dose: 3.5 mg/kg/injection, schedule: Q01DX009 (ip), vehicle: Klucel (hydroxypropylcellulose) (HPC)
  T/C: 95 % of control
dose: 4.7 mg/kg/injection, schedule: Q04DX003 (ip), vehicle: Klucel (hydroxypropylcellulose) (HPC)
  T/C: 140 % of control
dose: 7.0 mg/kg/injection, schedule: Q01DX009 (ip), vehicle: Klucel (hydroxypropylcellulose) (HPC)
  T/C: 95 % of control
dose: 7.2 mg/kg/injection, schedule: Q04DX003 (ip), vehicle: Klucel (hydroxypropylcellulose) (HPC)
  T/C: 145 % of control
dose: 9.2 mg/kg/injection, schedule: Q01DX009 (ip), vehicle: Klucel (hydroxypropylcellulose) (HPC)
  T/C: 177 % of control (2×)
dose: 10.0 mg/kg/injection, schedule: Q04DX003 (ip), vehicle: Klucel (hydroxypropylcellulose) (HPC)
  T/C: 140 % of control
dose: 14.0 mg/kg/injection, schedule: Q01DX009 (ip), vehicle: Klucel (hydroxypropylcellulose) (HPC)
  T/C: 186, 200, 218 % of control [5 of 6 alive]
dose: 16.5 mg/kg/injection, schedule: Q04DX003 (ip), vehicle: Klucel (hydroxypropylcellulose) (HPC)
  T/C: 159 % of control
dose: 21.0 mg/kg/injection, schedule: Q01DX009 (ip), vehicle: Klucel (hydroxypropylcellulose) (HPC)
  T/C: 127 and 227 % of control
dose: 24.75 mg/kg/injection, schedule: Q04DX003 (ip), vehicle: Klucel (hydroxypropylcellulose) (HPC)
  T/C: 100 % of control
dose: 28.12 mg/kg/injection, schedule: Q01DX009 (ip), vehicle: Klucel (hydroxypropylcellulose) (HPC)
  T/C: 91 % of control
dose: 49.5 mg/kg/injection, schedule: Q04DX003 (ip), vehicle: Klucel (hydroxypropylcellulose) (HPC)
  T/C: 95 % of control
dose: 50.0 mg/kg/injection, schedule: Q04DX003 (ip), vehicle: Klucel (hydroxypropylcellulose) (HPC)
  T/C: 209 % of control
dose: 56.25 mg/kg/injection, schedule: Q01DX009 (ip), vehicle: Klucel (hydroxypropylcellulose) (HPC)
  survivor count: 6 of 6
[1]
  T/C: 95 % of control
  survivor count: 5 of 6
dose: 112.5 mg/kg/injection, schedule: Q01DX009 (ip), vehicle: Klucel (hydroxypropylcellulose) (HPC)
  survivor count: 5 of 6
dose: 112.5 mg/kg/injection, schedule: Q04DX003 (ip), vehicle: Klucel (hydroxypropylcellulose) (HPC)
  T/C: 100 [5 of 6 alive] and 242 % of control

## O[C@H](CNCCCl)[C@@H](O)CNCCCl
dose: 2.2 mg/kg/injection, schedule: Q04DX003 (ip), vehicle: saline
  T/C: 127 % of control
dose: 3.3 mg/kg/injection, schedule: Q04DX003 (ip), vehicle: saline
  T/C: 150 % of control
[2]
  T/C: 245 % of control
  survivor count: 6 of 6
dose: 5.0 mg/kg/injection, schedule: Q04DX003 (ip), vehicle: saline
  T/C: 181 % of control
dose: 5.5 mg/kg/injection, schedule: Q01DX009 (ip), vehicle: saline
  T/C: 218 % of control
dose: 5.56 mg/kg/injection, schedule: Q04DX003 (ip), vehicle: saline
  T/C: 172 % of control
dose: 7.5 mg/kg/injection, schedule: Q04DX003 (ip), vehicle: saline
  T/C: 186 % of control
[3]
  T/C: 272 % of control
  survivor count: 6 of 6
dose: 8.3 mg/kg/injection, schedule: Q01DX009 (ip), vehicle: saline
  T/C: 195 % of control
dose: 8.33 mg/kg/injection, schedule: Q04DX003 (ip), vehicle: saline
  T/C: 200 % of control
dose: 12.5 mg/kg/injection, schedule: Q01DX009 (ip), vehicle: saline
  T/C: 222 % of control
dose: 12.5 mg/kg/injection, schedule: Q04DX003 (ip), vehicle: saline
  T/C: 218 and 250 % of control
[4]
  T/C: 272 % of control
  survivor count: 6 of 6
dose: 18.7 mg/kg/injection, schedule: Q01DX009 (ip), vehicle: saline
  T/C: 118 % of control
dose: 18.7 mg/kg/injection, schedule: Q04DX003 (ip), vehicle: saline
  T/C: 263 % of control
dose: 25.0 mg/kg/injection, schedule: Q04DX003 (ip), vehicle: saline
  T/C: 277 % of control
dose: 50.0 mg/kg/injection, schedule: Q04DX003 (ip), vehicle: saline
  T/C: 100 and 218 % of control
[5]
  T/C: 90 % of control
[6]
  survivor count: 4 of 6

## CCN1CCNCc2ccc(C)nc21.O=[N+]([O-])c1cc([N+](=O)[O-])c(O)c([N+](=O)[O-])c1
[5]
  T/C: 98 % of control
[6]
  T/C: 104 % of control
dose: 400.0 mg/kg/injection, schedule: Q04DX003 (ip), vehicle: saline
  survivor count: 0 of 6

## CCCCO[P+](=O)OCCCC
dose: 50.0 mg/kg/injection, schedule: Q01DX009 (ip), vehicle: saline
  T/C: 118 % of control
dose: 100.0 mg/kg/injection, schedule: Q01DX009 (ip), vehicle: saline
  T/C: 100 % of control
[7]
  T/C: 100 % of control
dose: 200.0 mg/kg/injection, schedule: Q01DX009 (ip), vehicle: saline
  T/C: 104 % of control
dose: 200.0 mg/kg/injection, schedule: Q04DX003 (ip), vehicle: saline with Tween-80
  T/C: 100 % of control
dose: 400.0 mg/kg/injection, schedule: Q04DX003 (ip), vehicle: saline with Tween-80
  T/C: 100 % of control

## CCOC(=O)CSc1c(N)c(C)nn1C.O=[N+]([O-])c1cc([N+](=O)[O-])c(O)c([N+](=O)[O-])c1
dose: 3.12 mg/kg/injection, schedule: Q01DX009 (ip), vehicle: water
  T/C: 108 % of control [survivor count not shown]
dose: 6.25 mg/kg/injection, schedule: Q01DX009 (ip), vehicle: water
  T/C: 92 % of control [survivor count not shown]
dose: 12.5 mg/kg/injection, schedule: Q01DX009 (ip), vehicle: water
  T/C: 101 % of control [survivor count not shown]
dose: 12.5 mg/kg/injection, schedule: Q04DX003 (ip), vehicle: water
  T/C: 93 % of control [survivor count not shown]
dose: 25.0 mg/kg/injection, schedule: Q01DX009 (ip), vehicle: water
  T/C: 97 % of control [survivor count not shown]
dose: 25.0 mg/kg/injection, schedule: Q04DX003 (ip), vehicle: water
  T/C: 98 % of control [survivor count not shown]
dose: 50.0 mg/kg/injection, schedule: Q01DX009 (ip), vehicle: water
  T/C: 90 % of control [survivor count not shown]
dose: 50.0 mg/kg/injection, schedule: Q04DX003 (ip), vehicle: water
  T/C: 104 % of control [survivor count not shown]
dose: 100.0 mg/kg/injection, schedule: Q01DX009 (ip), vehicle: water
  T/C: 92 % of control [survivor count not shown]
dose: 100.0 mg/kg/injection, schedule: Q04DX003 (ip), vehicle: water
  T/C: 92 % of control [survivor count not shown]
dose: 200.0 mg/kg/injection, schedule: Q04DX003 (ip), vehicle: water
  T/C: 92 % of control [survivor count not shown]

## [N-]=[N+]=NC(=O)c1cc(Cl)cc(C(=O)N=[N+]=[N-])n1
dose: 12.5 mg/kg/injection, schedule: Q01DX009 (ip), vehicle: saline with Tween-80
  T/C: 109 % of control
dose: 25.0 mg/kg/injection, schedule: Q01DX009 (ip), vehicle: saline with Tween-80
  T/C: 113 % of control [4 of 6 alive]
dose: 25.0 mg/kg/injection, schedule: Q04DX003 (ip), vehicle: saline with Tween-80
  T/C: 109 % of control [5 of 6 alive]
dose: 50.0 mg/kg/injection, schedule: Q01DX009 (ip), vehicle: saline with Tween-80
  survivor count: 0 of 6
dose: 50.0 mg/kg/injection, schedule: Q04DX003 (ip), vehicle: saline with Tween-80
  T/C: 104 % of control
[7]
  survivor count: 4 of 6
